Literature values as cited in patent US6610697B1, “Substituted 2-aryl-3-(heteroaryl)-imidazo[1,2-a]pyrimidines, and related pharmaceutical compositions and methods” (Ortho-McNeil Pharmaceutical, Inc., priority 1999, dated 2003).

Columns and labels:
TNF-α and IL-1 = settings: read-out: IC50 for reducing production of TNF-α and IL-1; LPS-stimulated human monocyte cell lines; cited from earlier work
inflammatory cytokines = settings: cited from earlier work

In the case of C[S+]([O-])c1ccc(-c2nc(-c3ccncc3)c(-c3ccc(F)cc3)[nH]2)cc1 (centres unmarked) [SB 203580], the IC50 (TNF-α and IL-1) is given as 50 to 100 nM and the “IC50 for inhibiting production of the inflammatory cytokines in rats and mice” value (inflammatory cytokines) is given as 15 to 25 mg/kg.
